One assay concerns the target GST-PFKFB4 (UniProt Q16877). The experiment in a line: pull-down; GST or GST-PFKFB4 as bait; in vitro binding; procedure as in ref. 29.
The target in assay [1] is PFKFB4 (6-phosphofructose-2-kinase/fructose-2,6-bisphosphatase 4), endogenous (human (endogenous in ESC endometriosis stromal cells)) (UniProt Q16877). Put plainly: co-IP; ESC cells; lysate incubated overnight at 4 °C with magnetic beads carrying antibody (anti-PFKFB4, Fig. 2D; anti-PIM2, Fig. 2E); Western blot. For orientation: Immunoblotting shows a protein as a band on a membrane.

Chains of the proteins cited; added tags and fusions are not shown.
UniProt Q16877: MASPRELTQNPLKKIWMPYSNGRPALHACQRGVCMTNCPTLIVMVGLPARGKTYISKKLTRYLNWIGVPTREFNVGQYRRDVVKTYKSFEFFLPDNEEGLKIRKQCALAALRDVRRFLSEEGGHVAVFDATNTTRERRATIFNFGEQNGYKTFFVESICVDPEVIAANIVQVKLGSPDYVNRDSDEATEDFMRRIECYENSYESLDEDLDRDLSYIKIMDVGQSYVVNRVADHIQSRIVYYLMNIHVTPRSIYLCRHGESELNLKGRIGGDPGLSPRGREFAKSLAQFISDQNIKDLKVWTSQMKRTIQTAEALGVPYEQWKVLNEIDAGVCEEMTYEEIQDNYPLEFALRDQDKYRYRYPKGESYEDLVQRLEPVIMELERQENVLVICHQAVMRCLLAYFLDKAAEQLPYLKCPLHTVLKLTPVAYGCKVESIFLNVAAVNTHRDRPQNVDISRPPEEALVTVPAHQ
UniProt Q9P1W9: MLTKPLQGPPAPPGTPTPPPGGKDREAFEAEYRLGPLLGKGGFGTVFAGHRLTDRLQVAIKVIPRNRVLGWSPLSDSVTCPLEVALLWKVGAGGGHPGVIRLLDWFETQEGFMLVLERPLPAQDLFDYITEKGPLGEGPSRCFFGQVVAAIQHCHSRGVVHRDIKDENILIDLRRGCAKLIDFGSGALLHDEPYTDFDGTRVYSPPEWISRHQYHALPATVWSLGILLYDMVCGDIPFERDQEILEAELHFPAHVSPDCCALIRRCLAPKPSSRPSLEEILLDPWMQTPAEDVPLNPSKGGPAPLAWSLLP

Assay [2] deals with HA-PFKFB4 (6-phosphofructose-2-kinase/fructose-2,6-bisphosphatase 4) (UniProt Q16877). Put plainly: co-IP; 293T cells, transfected; lysate incubated overnight at 4 °C with magnetic beads carrying antibody (anti-HA, Fig. 2B; anti-Flag, Fig. 2C); Western blot.

No constants are given. Whether binding was seen depends on the method and setting. Binding seen in cells or lysates may run through a third protein. Some results given as binding are weak or reduced against the parent protein; the word gives no strength.

Turning to “PIM2 used in the GST pull-down (from UniProt Q9P1W9 1-311)”, the binding entry in the assay with GST-PFKFB4 is “binds”.
For “PIM2 (proviral insertion in murine lymphomas 2), endogenous (from UniProt Q9P1W9 1-311)”, the binding entry in assay [1] was “binds”.
With “Flag-PIM2 (proviral insertion in murine lymphomas 2) (from UniProt Q9P1W9 1-311)”, the binding entry in assay [2] was “binds”.

Source of the values: PMC9477845.
